The other results are listed elsewhere or left out.
Compound: COc1ccc(Cn2ccc3ccc(C(=O)NO)cc32)cc1
Experiment: dose-dependent thermal stabilisation call (2D-TPP, DLPTP, 10% FDR) (binary (1 = stabilised)); higher = stabilised by the compound
Conditions: system: HL-60 intact cells; concentration range 0.04-10 µM

Sequences of proteins named here, by UniProt entry; tags and fusion partners are left off. A change or cut given only in a name is not applied to a line headed by its entry.
UniProt Q9Y6M9, whole entry: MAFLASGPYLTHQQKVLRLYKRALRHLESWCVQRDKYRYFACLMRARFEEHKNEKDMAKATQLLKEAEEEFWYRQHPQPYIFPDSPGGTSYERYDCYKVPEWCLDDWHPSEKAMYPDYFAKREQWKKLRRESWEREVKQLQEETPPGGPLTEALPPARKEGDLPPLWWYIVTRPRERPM
UniProt Q5JS37: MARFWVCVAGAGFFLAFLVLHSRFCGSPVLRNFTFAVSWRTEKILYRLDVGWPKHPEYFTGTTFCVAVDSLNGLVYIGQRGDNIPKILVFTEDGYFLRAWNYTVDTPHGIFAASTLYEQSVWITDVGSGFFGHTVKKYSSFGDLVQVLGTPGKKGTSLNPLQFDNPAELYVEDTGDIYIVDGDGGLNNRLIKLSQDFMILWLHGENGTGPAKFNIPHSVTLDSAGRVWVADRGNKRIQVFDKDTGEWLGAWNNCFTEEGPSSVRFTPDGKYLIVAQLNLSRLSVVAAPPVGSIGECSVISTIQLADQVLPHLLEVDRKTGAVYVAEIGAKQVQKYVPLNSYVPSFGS
UniProt Q9UDX5: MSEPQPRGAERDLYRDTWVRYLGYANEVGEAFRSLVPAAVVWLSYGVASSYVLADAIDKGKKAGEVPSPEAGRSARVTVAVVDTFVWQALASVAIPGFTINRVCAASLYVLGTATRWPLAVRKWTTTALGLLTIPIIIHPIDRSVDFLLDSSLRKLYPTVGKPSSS
UniProt P60660, whole entry: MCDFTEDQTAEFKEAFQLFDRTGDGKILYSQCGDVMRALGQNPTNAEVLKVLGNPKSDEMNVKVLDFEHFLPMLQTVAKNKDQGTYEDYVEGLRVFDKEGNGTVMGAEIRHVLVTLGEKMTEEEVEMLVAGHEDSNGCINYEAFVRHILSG
UniProt Q9H6Q4: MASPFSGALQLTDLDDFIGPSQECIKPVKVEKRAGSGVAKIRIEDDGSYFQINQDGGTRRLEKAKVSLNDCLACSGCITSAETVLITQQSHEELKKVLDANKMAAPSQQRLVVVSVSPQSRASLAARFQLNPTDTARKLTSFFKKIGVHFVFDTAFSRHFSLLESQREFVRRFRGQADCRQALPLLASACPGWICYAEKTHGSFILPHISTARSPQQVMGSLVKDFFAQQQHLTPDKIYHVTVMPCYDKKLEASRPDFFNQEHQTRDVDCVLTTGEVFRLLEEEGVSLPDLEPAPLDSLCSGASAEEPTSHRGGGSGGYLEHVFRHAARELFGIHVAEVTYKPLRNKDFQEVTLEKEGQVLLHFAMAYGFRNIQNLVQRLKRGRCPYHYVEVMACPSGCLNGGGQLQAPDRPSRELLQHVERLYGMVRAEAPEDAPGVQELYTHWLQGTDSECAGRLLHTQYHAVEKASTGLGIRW
UniProt Q9Y314: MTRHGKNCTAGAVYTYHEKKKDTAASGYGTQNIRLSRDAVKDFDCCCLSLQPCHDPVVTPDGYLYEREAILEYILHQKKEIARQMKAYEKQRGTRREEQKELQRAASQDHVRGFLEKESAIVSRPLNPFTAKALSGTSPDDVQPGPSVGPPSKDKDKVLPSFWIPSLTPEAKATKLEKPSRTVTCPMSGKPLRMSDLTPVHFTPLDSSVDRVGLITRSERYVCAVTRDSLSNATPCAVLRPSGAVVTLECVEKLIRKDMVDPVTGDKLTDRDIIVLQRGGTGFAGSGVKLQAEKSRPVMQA
UniProt Q6IBW4: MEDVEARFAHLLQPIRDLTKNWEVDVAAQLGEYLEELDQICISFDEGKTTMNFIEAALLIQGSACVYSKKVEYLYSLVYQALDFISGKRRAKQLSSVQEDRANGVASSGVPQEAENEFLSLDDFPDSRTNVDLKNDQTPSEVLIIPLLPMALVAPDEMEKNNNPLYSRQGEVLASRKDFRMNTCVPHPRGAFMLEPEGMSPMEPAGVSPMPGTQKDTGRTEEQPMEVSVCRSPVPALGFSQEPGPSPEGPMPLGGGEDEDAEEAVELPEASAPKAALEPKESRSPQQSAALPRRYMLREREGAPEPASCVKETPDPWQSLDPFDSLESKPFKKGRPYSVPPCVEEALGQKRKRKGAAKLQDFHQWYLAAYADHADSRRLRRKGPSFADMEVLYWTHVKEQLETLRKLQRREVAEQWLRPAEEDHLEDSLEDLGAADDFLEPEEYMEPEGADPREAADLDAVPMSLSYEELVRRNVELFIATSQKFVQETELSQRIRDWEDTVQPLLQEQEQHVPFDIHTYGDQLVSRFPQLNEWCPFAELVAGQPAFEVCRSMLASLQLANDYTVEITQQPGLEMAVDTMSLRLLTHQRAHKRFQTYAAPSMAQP
UniProt O95167, whole entry: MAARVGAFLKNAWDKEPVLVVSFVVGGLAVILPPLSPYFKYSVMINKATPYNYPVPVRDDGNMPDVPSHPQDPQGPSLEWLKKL
UniProt P46531, whole entry: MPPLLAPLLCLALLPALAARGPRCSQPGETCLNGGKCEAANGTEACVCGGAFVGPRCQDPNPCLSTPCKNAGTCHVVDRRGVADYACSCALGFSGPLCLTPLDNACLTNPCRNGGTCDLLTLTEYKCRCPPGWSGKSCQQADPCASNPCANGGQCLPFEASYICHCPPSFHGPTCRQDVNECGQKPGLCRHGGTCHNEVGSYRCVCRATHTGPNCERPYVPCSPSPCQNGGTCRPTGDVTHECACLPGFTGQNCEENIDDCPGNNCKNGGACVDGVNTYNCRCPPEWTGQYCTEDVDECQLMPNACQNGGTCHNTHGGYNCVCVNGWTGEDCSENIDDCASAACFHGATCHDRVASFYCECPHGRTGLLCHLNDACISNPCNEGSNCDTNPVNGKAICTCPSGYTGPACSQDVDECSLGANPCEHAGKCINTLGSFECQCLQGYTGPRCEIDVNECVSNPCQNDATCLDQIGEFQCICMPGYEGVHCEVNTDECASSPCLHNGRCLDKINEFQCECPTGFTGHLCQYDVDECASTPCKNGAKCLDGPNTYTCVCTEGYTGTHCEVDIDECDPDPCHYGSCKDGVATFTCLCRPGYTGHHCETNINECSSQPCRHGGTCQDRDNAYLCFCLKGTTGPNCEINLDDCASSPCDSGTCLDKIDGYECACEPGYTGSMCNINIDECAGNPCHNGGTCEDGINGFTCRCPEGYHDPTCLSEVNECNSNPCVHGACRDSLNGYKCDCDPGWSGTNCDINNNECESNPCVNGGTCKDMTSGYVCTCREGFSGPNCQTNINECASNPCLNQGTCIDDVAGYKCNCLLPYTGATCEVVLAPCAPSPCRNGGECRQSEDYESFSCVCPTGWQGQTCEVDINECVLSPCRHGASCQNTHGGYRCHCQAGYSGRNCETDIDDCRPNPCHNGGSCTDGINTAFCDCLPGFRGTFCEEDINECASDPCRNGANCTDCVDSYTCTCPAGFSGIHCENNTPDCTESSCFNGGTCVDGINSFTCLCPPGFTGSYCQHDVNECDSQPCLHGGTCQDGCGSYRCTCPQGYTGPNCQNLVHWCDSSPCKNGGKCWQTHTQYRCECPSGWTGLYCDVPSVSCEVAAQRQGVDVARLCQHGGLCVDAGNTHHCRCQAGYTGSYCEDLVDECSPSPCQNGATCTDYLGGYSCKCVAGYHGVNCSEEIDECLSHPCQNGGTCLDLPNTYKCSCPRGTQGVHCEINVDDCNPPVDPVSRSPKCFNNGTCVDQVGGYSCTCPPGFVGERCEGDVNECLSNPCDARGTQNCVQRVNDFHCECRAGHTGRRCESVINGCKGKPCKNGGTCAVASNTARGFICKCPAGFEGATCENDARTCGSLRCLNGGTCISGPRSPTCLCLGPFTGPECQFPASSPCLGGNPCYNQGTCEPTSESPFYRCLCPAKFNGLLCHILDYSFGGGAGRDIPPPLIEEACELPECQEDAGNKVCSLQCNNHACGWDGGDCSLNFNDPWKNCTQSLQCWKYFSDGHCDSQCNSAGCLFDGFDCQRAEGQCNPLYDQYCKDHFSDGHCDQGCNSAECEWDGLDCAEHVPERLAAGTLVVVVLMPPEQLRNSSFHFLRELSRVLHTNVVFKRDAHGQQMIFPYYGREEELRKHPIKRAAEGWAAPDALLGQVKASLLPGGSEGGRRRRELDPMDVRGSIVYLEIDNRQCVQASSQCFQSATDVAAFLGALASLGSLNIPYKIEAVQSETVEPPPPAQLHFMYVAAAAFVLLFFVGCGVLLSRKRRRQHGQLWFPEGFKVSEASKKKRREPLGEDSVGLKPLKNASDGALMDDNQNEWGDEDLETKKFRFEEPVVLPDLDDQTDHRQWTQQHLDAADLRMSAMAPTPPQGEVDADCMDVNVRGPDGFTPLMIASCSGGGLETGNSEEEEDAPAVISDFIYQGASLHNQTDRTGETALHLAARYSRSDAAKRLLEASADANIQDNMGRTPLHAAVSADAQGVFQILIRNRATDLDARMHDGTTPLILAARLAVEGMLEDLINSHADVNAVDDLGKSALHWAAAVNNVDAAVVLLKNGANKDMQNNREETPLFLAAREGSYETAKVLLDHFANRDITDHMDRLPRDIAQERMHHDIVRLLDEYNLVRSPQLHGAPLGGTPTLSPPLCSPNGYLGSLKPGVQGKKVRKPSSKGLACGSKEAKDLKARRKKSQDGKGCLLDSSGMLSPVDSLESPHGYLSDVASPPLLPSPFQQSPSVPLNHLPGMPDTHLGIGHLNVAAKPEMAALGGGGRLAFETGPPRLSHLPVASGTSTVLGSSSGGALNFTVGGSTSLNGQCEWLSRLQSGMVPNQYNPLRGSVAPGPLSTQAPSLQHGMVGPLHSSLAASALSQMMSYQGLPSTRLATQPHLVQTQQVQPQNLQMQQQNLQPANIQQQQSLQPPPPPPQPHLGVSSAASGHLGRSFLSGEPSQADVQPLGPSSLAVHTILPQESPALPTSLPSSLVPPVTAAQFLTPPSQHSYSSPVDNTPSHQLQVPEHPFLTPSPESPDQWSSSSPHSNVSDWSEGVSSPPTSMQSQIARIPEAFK
UniProt P56278: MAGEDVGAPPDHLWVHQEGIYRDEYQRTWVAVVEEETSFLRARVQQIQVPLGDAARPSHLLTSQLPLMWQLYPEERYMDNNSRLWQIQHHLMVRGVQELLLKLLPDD
UniProt O95251, whole entry: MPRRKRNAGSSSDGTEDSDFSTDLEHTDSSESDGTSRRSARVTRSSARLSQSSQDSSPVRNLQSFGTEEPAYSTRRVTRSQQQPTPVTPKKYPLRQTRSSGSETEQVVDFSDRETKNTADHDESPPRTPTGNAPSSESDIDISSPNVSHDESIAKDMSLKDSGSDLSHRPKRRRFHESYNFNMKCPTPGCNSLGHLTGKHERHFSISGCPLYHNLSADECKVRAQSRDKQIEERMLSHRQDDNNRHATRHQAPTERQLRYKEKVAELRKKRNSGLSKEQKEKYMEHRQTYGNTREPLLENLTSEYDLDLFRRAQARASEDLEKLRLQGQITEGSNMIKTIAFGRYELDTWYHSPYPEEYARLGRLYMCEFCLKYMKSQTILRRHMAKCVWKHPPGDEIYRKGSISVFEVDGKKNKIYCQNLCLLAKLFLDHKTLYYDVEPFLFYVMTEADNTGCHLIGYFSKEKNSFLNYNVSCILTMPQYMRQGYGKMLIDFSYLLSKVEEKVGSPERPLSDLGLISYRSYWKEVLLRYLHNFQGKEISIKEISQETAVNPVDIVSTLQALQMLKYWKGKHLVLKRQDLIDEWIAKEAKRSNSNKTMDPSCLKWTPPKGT
UniProt P61916: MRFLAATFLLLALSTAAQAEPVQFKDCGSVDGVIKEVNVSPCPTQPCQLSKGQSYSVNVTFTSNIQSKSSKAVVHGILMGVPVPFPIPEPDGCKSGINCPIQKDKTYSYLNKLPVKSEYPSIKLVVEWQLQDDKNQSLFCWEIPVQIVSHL
UniProt Q5C9Z4: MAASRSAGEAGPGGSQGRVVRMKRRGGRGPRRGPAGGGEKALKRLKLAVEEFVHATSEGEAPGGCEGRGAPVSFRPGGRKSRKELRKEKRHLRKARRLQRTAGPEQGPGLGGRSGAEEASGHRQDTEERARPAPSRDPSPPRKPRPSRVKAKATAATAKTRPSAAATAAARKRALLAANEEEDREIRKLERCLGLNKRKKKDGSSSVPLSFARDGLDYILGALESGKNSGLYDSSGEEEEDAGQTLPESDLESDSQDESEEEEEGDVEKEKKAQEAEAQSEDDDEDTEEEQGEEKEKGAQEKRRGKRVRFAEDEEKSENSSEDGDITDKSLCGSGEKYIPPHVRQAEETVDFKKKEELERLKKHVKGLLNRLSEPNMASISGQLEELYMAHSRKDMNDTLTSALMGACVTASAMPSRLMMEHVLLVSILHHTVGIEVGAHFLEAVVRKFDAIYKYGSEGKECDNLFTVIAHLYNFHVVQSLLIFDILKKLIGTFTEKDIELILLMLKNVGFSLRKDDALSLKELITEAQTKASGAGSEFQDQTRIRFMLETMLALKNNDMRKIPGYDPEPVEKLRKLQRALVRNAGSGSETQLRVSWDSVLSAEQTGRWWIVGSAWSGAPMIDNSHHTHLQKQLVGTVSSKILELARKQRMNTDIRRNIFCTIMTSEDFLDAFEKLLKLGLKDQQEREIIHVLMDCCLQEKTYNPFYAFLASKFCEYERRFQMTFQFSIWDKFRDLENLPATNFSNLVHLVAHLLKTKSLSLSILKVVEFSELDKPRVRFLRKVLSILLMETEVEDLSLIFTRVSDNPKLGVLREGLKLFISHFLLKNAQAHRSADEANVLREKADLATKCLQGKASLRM

Target | dose-dependent thermal stabilisation call
NFKB1 (UniProt P19838) | inactive: 0
NDUFB9 (UniProt Q9Y6M9) | inactive: 0
MRPS5 (UniProt P82675) | inactive: 0
NDUFA8 (UniProt P51970) | inactive: 0
NECAP1 (UniProt Q8NC96) | inactive: 0
NHLRC3 (UniProt Q5JS37) | inactive: 0
NAT14 (UniProt Q8WUY8) | inactive: 0
MTP18 (UniProt Q9UDX5) | inactive: 0
MRPS35 (UniProt P82673) | inactive: 0
MTO1 (UniProt Q9Y2Z2) | inactive: 0
NCOR1 (UniProt O75376) | inactive: 0
MYL6 (UniProt P60660) | inactive: 0
MSTO1 (UniProt Q9BUK6) | inactive: 0
NARG1L (UniProt Q6N069) | inactive: 0
MYADM (UniProt Q96S97) | inactive: 0
MUTED (UniProt Q8TDH9) | inactive: 0
NOL6 (UniProt Q9H6R4) | inactive: 0
NARFL (UniProt Q9H6Q4) | inactive: 0
NOSIP (UniProt Q9Y314) | inactive: 0

Exported with each value named: entries from further up.
MYADM (UniProt Q96S97)
  dose-dependent thermal stabilisation call: inactive: 0
MUTED (UniProt Q8TDH9)
  dose-dependent thermal stabilisation call: inactive: 0

(listing goes on)

Target | dose-dependent thermal stabilisation call
NCK1 (UniProt P16333) | inactive: 0
NCAPH2 (UniProt Q6IBW4) | inactive: 0
NDUFA3 (UniProt O95167) | inactive: 0
NEK1 (UniProt Q96PY6) | inactive: 0
MTHFD1L (UniProt Q6UB35) | inactive: 0
NCOA5 (UniProt Q9HCD5) | inactive: 0
NOTCH1 (UniProt P46531) | inactive: 0
NDUFAB1 (UniProt O14561) | inactive: 0
MTCP1 (UniProt P56278) | inactive: 0
MYST2 (UniProt O95251) | inactive: 0
NAT5 | inactive: 0
NPC2 (UniProt P61916) | inactive: 0
NOM1 (UniProt Q5C9Z4) | inactive: 0
NHP2L1 (UniProt P55769) | inactive: 0
MT2A (UniProt P02795) | inactive: 0
NBN (UniProt O60934) | inactive: 0
NDUFA7 (UniProt O95182) | inactive: 0
NNT (UniProt Q13423) | inactive: 0
